Publication PMC9576614
These are yes or no findings as the source states them, for the method shown. Binding seen in cells or lysates may run through a third protein. Some results given as binding are weak or reduced against the parent protein; the word gives no strength. For some assays here: Where a sequence is shown, tags or fusion partners need not be part of it.

The chains behind the UniProt entries cited, without tags or fusion partners.
UniProt Q7KZF4: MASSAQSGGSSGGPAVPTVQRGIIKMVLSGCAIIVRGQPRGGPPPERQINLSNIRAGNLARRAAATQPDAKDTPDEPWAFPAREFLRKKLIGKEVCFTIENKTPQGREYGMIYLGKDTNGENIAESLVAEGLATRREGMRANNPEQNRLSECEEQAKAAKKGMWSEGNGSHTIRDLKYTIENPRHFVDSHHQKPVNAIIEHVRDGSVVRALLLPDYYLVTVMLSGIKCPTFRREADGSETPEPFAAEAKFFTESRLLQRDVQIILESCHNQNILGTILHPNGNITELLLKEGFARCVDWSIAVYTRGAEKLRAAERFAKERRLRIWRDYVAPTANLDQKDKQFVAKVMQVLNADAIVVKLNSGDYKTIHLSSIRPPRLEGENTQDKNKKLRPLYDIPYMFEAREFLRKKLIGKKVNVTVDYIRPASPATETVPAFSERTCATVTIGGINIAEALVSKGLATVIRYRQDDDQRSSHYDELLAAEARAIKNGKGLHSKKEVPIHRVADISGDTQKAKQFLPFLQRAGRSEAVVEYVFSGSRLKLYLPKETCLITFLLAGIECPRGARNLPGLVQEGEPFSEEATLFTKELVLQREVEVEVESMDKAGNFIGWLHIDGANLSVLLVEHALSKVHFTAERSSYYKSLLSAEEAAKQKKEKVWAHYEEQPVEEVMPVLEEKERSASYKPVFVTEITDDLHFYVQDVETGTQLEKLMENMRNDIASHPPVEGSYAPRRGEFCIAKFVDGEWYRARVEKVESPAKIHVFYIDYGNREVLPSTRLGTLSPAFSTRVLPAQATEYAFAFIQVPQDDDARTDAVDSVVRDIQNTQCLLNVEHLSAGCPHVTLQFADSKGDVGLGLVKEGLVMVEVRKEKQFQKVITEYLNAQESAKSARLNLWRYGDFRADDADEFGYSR
UniProt Q969H0: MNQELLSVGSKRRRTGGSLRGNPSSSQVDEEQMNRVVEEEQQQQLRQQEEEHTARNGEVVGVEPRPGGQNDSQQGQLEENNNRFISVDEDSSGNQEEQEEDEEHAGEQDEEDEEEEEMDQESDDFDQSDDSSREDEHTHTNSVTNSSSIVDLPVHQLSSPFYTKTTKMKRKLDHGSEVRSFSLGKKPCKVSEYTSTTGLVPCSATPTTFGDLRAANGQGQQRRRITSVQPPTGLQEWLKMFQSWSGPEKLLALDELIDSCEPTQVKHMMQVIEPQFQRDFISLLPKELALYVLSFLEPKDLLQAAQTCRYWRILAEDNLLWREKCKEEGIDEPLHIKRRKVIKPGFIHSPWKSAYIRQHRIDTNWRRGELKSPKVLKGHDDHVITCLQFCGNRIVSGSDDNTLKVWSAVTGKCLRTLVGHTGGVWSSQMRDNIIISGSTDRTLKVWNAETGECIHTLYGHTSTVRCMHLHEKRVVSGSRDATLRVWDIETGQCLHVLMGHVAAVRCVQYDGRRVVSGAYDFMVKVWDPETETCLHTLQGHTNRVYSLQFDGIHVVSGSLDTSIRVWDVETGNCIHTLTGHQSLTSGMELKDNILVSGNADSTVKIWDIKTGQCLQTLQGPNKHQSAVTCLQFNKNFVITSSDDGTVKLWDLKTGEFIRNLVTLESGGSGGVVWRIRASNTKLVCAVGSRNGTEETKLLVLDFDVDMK

T1: palmitoyl-transferase zDHHC6, HA-tagged (UniProt Q9H6R6)
T1 sequence: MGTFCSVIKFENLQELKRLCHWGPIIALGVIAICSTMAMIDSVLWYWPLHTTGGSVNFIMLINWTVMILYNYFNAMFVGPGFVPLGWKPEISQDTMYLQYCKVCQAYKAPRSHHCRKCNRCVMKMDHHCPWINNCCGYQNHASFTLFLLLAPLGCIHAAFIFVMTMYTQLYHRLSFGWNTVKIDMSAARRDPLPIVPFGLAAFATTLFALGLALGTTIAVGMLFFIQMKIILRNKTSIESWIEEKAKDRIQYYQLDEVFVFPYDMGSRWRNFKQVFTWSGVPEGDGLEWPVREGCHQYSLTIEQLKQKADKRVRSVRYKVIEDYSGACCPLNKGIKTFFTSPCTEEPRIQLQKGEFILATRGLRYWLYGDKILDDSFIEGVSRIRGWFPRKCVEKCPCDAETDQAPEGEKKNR

T2: SND1, endogenous in mouse liver (mouse (endogenous in liver)) (UniProt Q78PY7)
T2 sequence: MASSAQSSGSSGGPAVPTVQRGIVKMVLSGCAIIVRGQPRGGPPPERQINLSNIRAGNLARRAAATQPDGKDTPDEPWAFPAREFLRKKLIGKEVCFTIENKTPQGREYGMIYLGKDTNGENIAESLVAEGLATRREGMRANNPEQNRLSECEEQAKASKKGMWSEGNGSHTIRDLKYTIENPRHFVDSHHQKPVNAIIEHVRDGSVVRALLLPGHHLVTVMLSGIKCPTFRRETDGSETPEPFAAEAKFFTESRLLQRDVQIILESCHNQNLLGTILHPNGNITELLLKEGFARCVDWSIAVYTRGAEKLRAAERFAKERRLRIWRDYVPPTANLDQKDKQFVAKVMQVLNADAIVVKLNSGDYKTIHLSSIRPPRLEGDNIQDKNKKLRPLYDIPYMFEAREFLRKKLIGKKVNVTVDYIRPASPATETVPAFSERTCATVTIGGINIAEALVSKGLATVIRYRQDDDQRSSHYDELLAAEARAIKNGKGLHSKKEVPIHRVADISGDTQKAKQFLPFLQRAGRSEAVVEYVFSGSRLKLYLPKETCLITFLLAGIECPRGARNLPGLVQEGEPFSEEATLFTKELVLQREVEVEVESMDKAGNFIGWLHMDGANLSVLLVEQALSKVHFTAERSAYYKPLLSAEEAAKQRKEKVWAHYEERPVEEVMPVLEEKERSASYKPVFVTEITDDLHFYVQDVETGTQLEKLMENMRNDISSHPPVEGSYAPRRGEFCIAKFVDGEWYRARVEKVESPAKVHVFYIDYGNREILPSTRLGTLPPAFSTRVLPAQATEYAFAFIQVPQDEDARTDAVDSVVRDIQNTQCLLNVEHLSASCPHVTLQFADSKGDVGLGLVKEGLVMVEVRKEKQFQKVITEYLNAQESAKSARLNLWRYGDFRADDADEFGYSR

T3: wildtype AEG-1 (Astrocyte-elevated gene-1), Myc-tagged (human) (UniProt Q86UE4)
T3 sequence (chain, Cys-75 palmitoylated in cells (mono-palmitoylated by APEGS assay)): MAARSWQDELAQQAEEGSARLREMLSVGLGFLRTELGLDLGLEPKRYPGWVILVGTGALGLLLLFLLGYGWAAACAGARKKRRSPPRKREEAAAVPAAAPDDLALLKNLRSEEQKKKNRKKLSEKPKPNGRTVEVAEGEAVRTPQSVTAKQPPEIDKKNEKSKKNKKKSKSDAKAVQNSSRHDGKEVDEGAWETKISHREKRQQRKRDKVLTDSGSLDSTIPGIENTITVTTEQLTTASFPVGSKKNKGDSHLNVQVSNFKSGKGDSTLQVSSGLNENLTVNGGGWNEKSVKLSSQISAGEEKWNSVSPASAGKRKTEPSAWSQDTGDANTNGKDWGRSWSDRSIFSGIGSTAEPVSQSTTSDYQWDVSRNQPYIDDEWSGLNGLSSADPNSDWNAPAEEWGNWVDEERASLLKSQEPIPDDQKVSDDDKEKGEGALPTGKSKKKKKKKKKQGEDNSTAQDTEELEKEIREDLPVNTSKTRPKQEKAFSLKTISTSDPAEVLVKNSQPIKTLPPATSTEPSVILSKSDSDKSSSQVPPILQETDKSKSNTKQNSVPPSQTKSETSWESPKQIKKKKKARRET


Key:
[1] = target: staphylococcal nuclease and tudor domain containing 1 (SND1), endogenous in human liver cancer cells (human (endogenous in Huh7 and HepG2)) (UniProt Q7KZF4); assay: co-IP; Huh7 or HepG2 cells expressing AEG-1-Myc, treated with 1x PBS or HCQ; normalised to PBS treatment
[2] = target: staphylococcal nuclease and tudor domain containing 1 (SND1), endogenous in human liver cancer cells (human (endogenous in Huh7 and HepG2)) (UniProt Q7KZF4); assay: co-IP; AEG-1-WT or AEG-1-MT expressed in Huh7 cells; coprecipitation with SND1, quantified, normalised to AEG-1-WT
[3] = target: T1, palmitoyl-transferase zDHHC6, HA-tagged; assay: co-IP; Myc-tagged AEG-1 and HA-tagged zDHHC6 co-expressed in HEK293T cells; RIPA lysates, protein A/G magnetic beads, western blotting
FBXW7, Flag-tagged = FBXW7, Flag-tagged (UniProt Q969H0); assay: co-IP; FBXW7 co-expressed with AEG-1-WT or AEG-1-MT; immunoprecipitation and western blotting, quantified, normalised to AEG-1-WT; cell line not stated in the legend
[4] = target: T2, SND1, endogenous in mouse liver (mouse (endogenous in liver)); assay: co-IP; livers of WT, AEG-1^C75A and Zdhhc6-/- mice; association of AEG-1 with SND1, western blotting, quantified, normalised to WT
[5] = target: T3, wildtype AEG-1 (Astrocyte-elevated gene-1), Myc-tagged (human); assay: co-IP; interaction of AEG-1 with PPT1 or PPT2 by co-IP and western blotting; cell line and tags not stated in the legend

| Binder | binding [2] | binding (FBXW7, Flag-tagged) | further results |
| --- | --- | --- | --- |
| wildtype AEG-1 (Astrocyte-elevated gene-1), Myc-tagged (protein, UniProt Q86UE4 1-582, Cys-75 palmitoylated in cells (mono-palmitoylated by APEGS assay)) MAARSWQDELAQQAEEGSARLREMLSVGLGFLRTELGLDLGLEPKRYPGWVILVGTGALGLLLLFLLGYGWAAACAGARKKRRSPPRKREEAAAVPAAAPDDLALLKNLRSEEQKKKNRKKLSEKPKPNGRTVEVAEGEAVRTPQSVTAKQPPEIDKKNEKSKKNKKKSKSDAKAVQNSSRHDGKEVDEGAWETKISHREKRQQRKRDKVLTDSGSLDSTIPGIENTITVTTEQLTTASFPVGSKKNKGDSHLNVQVSNFKSGKGDSTLQVSSGLNENLTVNGGGWNEKSVKLSSQISAGEEKWNSVSPASAGKRKTEPSAWSQDTGDANTNGKDWGRSWSDRSIFSGIGSTAEPVSQSTTSDYQWDVSRNQPYIDDEWSGLNGLSSADPNSDWNAPAEEWGNWVDEERASLLKSQEPIPDDQKVSDDDKEKGEGALPTGKSKKKKKKKKKQGEDNSTAQDTEELEKEIREDLPVNTSKTRPKQEKAFSLKTISTSDPAEVLVKNSQPIKTLPPATSTEPSVILSKSDSDKSSSQVPPILQETDKSKSNTKQNSVPPSQTKSETSWESPKQIKKKKKARRET | binds | binds | binding [1]: binds; binding [3]: binds |
| mutant AEG-1 (cysteine at position 75 mutated to alanine), Myc-tagged (protein, UniProt Q86UE4 1-582) MAARSWQDELAQQAEEGSARLREMLSVGLGFLRTELGLDLGLEPKRYPGWVILVGTGALGLLLLFLLGYGWAAAAAGARKKRRSPPRKREEAAAVPAAAPDDLALLKNLRSEEQKKKNRKKLSEKPKPNGRTVEVAEGEAVRTPQSVTAKQPPEIDKKNEKSKKNKKKSKSDAKAVQNSSRHDGKEVDEGAWETKISHREKRQQRKRDKVLTDSGSLDSTIPGIENTITVTTEQLTTASFPVGSKKNKGDSHLNVQVSNFKSGKGDSTLQVSSGLNENLTVNGGGWNEKSVKLSSQISAGEEKWNSVSPASAGKRKTEPSAWSQDTGDANTNGKDWGRSWSDRSIFSGIGSTAEPVSQSTTSDYQWDVSRNQPYIDDEWSGLNGLSSADPNSDWNAPAEEWGNWVDEERASLLKSQEPIPDDQKVSDDDKEKGEGALPTGKSKKKKKKKKKQGEDNSTAQDTEELEKEIREDLPVNTSKTRPKQEKAFSLKTISTSDPAEVLVKNSQPIKTLPPATSTEPSVILSKSDSDKSSSQVPPILQETDKSKSNTKQNSVPPSQTKSETSWESPKQIKKKKKARRET | binds | binds weakly | – |
| AEG-1 C75A, endogenous in liver of AEG-1^C75A knock-in mice (protein, UniProt Q80WJ7 1-579) MAARSWQDELAQQAEEGSARLRELLSVGLGFLRTELGLDLGLEPKRYPGWVILVGTGALGLLLLFLLGYGWAAAAAGARKKRRSPPRKREEAAPPTPAPDDLAQLKNLRSEEQKKKNRKKLPEKPKPNGRTVEVPEDEVVRNPRSITAKQAPETDKKNEKSKKNKKKSKSDAKAVQNSSRHDGKEVDEGAWETKISHREKRQQRKRDKVLTDSGSLDSTIPGIENIITVTTEQLTTASFPVGSKKNKGDSHLNVQVSNFKSGKGDSTLQVSSRLNENLTVNGGGWSEKSVKLSSQLSEEKWNSVPPASAGKRKTEPSAWTQDTGDTNANGKDWGRNWSDRSIFSGIGSTAEPVSQSTTSDYQWDVSRNQPYIDDEWSGLNGLSSADPSSDWNAPAEEWGNWVDEDRASLLKSQEPISNDQKVSDDDKEKGEGALPTGKSKKKKKKKKKQGEDNSHTQDTEDLEKDTREELPVNTSKARPKQEKACSLKTMSTSDPAEVLIKNSQPVKTLPPAISAEPSITLSKGDSDNSSSQVPPMLQDTDKPKSNAKQNSVPPSQTKSETNWESPKQIKKKKKARRET | – | – | binding [4]: binds |
| depalmitoylating enzyme PPT2, Flag-tagged (enzyme, UniProt Q9UMR5 28-302) APAPHRASYKPVIVVHGLFDSSYSFRHLLEYINETHPGTVVTVLDLFDGRESLRPLWEQVQGFREAVVPIMAKAPQGVHLICYSQGGLVCRALLSVMDDHNVDSFISLSSPQMGQYGDTDYLKWLFPTSMRSNLYRICYSPWGQEFSICNYWHDPHHDDLYLNASSFLALINGERDHPNATVWRKNFLRVGHLVLIGGPDDGVITPWQSSFFGFYDANETVLEMEEQLVYLRDSFGLKTLLARGAIVRCPMAGISHTAWHSNRTLYETCIEPWLS | – | – | binding [5]: binds |
